Holding throughout (assay): co-IP; 293T cells co-transfected with HA-R1 and one of the Flag-R2 isoforms; at 45 h protein extracts immunoprecipitated with anti-HA or anti-Flag antibodies; Western blot with the other antibody
Experiment [1] concerns the target T1, HA-tagged zebrafish RNR M1 subunit (R1) (zebrafish) (UniProt P79732).
T1 sequence: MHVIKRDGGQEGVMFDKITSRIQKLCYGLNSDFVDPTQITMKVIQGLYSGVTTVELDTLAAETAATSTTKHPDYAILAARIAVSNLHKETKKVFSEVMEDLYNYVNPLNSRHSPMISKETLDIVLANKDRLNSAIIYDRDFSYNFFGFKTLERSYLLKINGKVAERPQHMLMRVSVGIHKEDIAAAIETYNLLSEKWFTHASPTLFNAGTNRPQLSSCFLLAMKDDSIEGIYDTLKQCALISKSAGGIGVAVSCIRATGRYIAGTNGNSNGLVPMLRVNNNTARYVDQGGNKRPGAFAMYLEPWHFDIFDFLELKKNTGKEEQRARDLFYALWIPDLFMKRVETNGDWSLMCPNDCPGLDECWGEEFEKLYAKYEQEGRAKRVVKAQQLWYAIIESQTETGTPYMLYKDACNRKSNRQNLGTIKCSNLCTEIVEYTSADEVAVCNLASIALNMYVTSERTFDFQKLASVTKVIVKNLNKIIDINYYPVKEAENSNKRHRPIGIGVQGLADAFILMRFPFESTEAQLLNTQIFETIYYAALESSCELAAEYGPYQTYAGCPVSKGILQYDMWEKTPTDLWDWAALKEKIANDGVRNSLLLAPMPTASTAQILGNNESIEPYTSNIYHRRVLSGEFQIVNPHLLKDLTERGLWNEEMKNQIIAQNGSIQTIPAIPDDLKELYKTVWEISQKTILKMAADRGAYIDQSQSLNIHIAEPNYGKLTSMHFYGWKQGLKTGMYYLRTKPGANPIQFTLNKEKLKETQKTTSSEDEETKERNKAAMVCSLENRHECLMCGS

The target of experiment [2] is Flag-tagged zebrafish Δ29R2 (N-terminally truncated R2 isoform encoded by R2_v3c) (zebrafish).
Experiment [3] concerns the target Flag-tagged zebrafish Δ52R2 (N-terminally truncated R2 isoform encoded by R2_v3d) (zebrafish).

These are yes or no findings as the source states them, for the method shown. In cells and extracts the contact can be indirect. A result given as binding can be weak or reduced; the word gives no strength. Where a sequence is shown, tags or fusion partners need not be part of it.

For “Flag-tagged zebrafish Δ29R2 (N-terminally truncated R2 isoform encoded by R2_v3c)”, the binding entry in experiment [1] is listed as “binds”. Still for that read-out and setting: to “Flag-tagged zebrafish Δ52R2 (N-terminally truncated R2 isoform encoded by R2_v3d)” belongs “binds”.

B1: HA-tagged zebrafish RNR M1 subunit (R1) (protein, UniProt P79732 1-794)
chain: T1 sequence
As to B1, the binding entry in experiment [2] and in experiment [3] was “binds” each time.
